Measured data: PubChem BioAssay AID504764 (Drosophila RNAi Screening Center, 2011)
The deposit covers about 22,000 reagents; below is an unselected part of those that have a named target and a result. In the full data, 403 (1.9%) were called active. 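Unnormalised raw counts per well; ratio z-scores behind the hit calls and whether each hit raises or lowers signal are not deposited.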 The numbers tell different reagents against one gene apart. Names joined by + are all predicted targets of the reagent. Reagent sequences are not shown. Not stated in the record: the amount of reagent.

- Aim: 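Knock-downs that raise or lower a Notch target reporter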 (primary screen)
- Cell system: Drosophila Kc167 cells
- Reagent: long dsRNA against Drosophila genes
- Time to read-out: about 5 days (4 days dsRNA, then 24 h after transfection)
- Challenge: transfection of constitutively active membrane-tethered Notch lacking the extracellular domain, read 24 h later
- Measurement: 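Firefly luciferase from an E(spl)m3 reporter with active Notch, plus control-promoter and uninduced reporter wells for normalisation; unnormalised counts, duplicate wells a and b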
- Direction: induced reporter light, run 1, well a and induced reporter light, run 1, well b: higher = more light from the Notch target reporter with active Notch; control promoter light, run 1, well a and control promoter light, run 1, well b: higher = more light from the viral control promoter (cell number, transfection, viability); uninduced reporter light, run 1, well a: higher = more light from the Notch target reporter without active Notch
- Call rule: 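Wells with low control signal or poorly matching duplicates excluded; duplicates averaged; per source plate, z beyond ±2 for induced/control log2 ratio or beyond ±1.8 for induced/uninduced marks a hit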
- Meaning of the calls: active = modifier hit (raised or lowered Notch signal); inactive = not a hit

Gene | dsRNA no. | induced reporter light, run 1, well a | induced reporter light, run 1, well b | control promoter light, run 1, well a | control promoter light, run 1, well b | uninduced reporter light, run 1, well a | Outcome
CG8584 | 1 | 1.83e5 | 1.37e5 | 1.96e5 | 2.07e5 | 13415 | inactive
Hsp60C | 1 | 2.37e5 | 1.73e5 | 2.26e5 | 1.98e5 | 12015 | inactive
CG30412 | 1 | 2.07e5 | 1.89e5 | 1.60e5 | 1.94e5 | 15440 | inactive
Arp5 | 1 | 1.84e5 | 1.69e5 | 2.24e5 | 2.31e5 | 15115 | inactive
lap | 1 | 1.55e5 | 1.35e5 | 74955 | 80905 | 9265 | inactive
CG13245 | 1 | 1.88e5 | 1.63e5 | 1.47e5 | 1.34e5 | 11565 | inactive
Ets96B | 1 | 1.46e5 | 1.36e5 | 1.59e5 | 1.28e5 | 10520 | inactive
CG12860 | 1 | 79645 | 96645 | 1.25e5 | 92545 | 7630 | inactive
CG31633 | 1 | 1.29e5 | 1.10e5 | 1.37e5 | 1.20e5 | 10800 | inactive
CG6638 | 1 | 1.18e5 | 1.28e5 | 1.22e5 | 1.06e5 | 4265 | inactive
Tsf1 | 1 | 65160 | 62260 | 71530 | 46380 | 8500 | inactive
brk | 1 | 36495 | 28520 | 43745 | 48575 | 7815 | inactive
Sytalpha | 1 | 1.06e5 | 1.32e5 | 1.45e5 | 1.47e5 | 9850 | inactive
CG30002 | 1 | 51325 | 64840 | 81780 | 88885 | 3230 | inactive
Nelf-A | 1 | 1.48e5 | 1.82e5 | 2.24e5 | 2.25e5 | 13635 | inactive
CG10481 | 1 | 71430 | 41890 | 54970 | 71960 | 4375 | inactive
alphaSnap | 1 | 29060 | 24030 | 20545 | 23205 | 2455 | inactive
Npc1a | 1 | 93330 | 1.14e5 | 55995 | 77260 | 11460 | inactive
EndoB | 1 | 1.11e5 | 1.06e5 | 1.07e5 | 96700 | 8670 | inactive
CG1387 | 1 | 3.01e5 | 2.06e5 | 3.12e5 | 2.92e5 | 19478 | inactive
CG4000 | 1 | 2.03e5 | 2.34e5 | 1.80e5 | 1.86e5 | 12385 | inactive
CG4000 | 2 | – | – | – | – | – | inactive
CG31807 | 1 | 58195 | 64040 | 69645 | 54345 | 5105 | inactive
toy | 1 | 1.74e5 | 1.79e5 | 2.51e5 | 2.72e5 | 14380 | inactive
CG10979 | 1 | 1.20e5 | 1.17e5 | 1.09e5 | 97805 | 8590 | inactive
Skp2 | 1 | 1.33e5 | 1.44e5 | 1.18e5 | 1.25e5 | 8590 | inactive
CG34288 | 1 | 98180 | 82720 | 1.31e5 | 1.20e5 | 12525 | inactive
eIF4G1 | 1 | 23220 | 31795 | 33805 | 31725 | 1665 | inactive
CG33453 | 1 | 1.07e5 | 1.04e5 | 1.25e5 | 1.20e5 | 9630 | inactive
Myb | 1 | 68830 | 63710 | 77945 | 88245 | 10240 | active
CG34160 | 1 | 1.50e5 | 1.19e5 | 1.45e5 | 1.41e5 | 8955 | inactive
Pk34A | 1 | 1.76e5 | 1.93e5 | 1.91e5 | 2.09e5 | 15050 | inactive
Alms1a | 1 | 1.46e5 | 1.28e5 | 2.56e5 | 2.49e5 | 10040 | inactive
CG14566 | 1 | 1.26e5 | 1.11e5 | 1.34e5 | 95975 | 11415 | inactive
dj | 1 | 72685 | 96265 | 1.05e5 | 61735 | 5740 | inactive
CG14107 | 1 | 1.14e5 | 1.25e5 | 1.77e5 | 1.53e5 | 6070 | inactive
dpr15 | 1 | 1.46e5 | 1.24e5 | 1.88e5 | 1.84e5 | 11420 | inactive
dpr15 | 2 | 58780 | 61965 | 58500 | 51095 | 12918 | inactive
dpr15 | 3 | 96365 | 78990 | 80035 | 69365 | 5045 | inactive
tub | 1 | 92335 | 1.12e5 | 65435 | 86405 | 8335 | inactive
Spn75F | 1 | 2.84e5 | 2.77e5 | 3.71e5 | 2.89e5 | 22450 | inactive
xmas | 1 | 99410 | 87165 | 1.03e5 | 1.01e5 | 8850 | inactive
CG32945 | 1 | 1.83e5 | 1.89e5 | 2.90e5 | 2.12e5 | 13465 | inactive
CG42296 | 1 | 1.23e5 | 1.20e5 | 1.19e5 | 64340 | 9045 | inactive
CG4707 | 1 | 1.01e5 | 99150 | 63460 | 70715 | 6805 | inactive
TwdlV | 1 | 67535 | 54390 | 61560 | 61080 | 6335 | inactive
RpL37A | 1 | 1.01e5 | 89925 | 1.43e5 | 1.05e5 | 4290 | inactive
CG4572 | 1 | 1.64e5 | 1.63e5 | 1.84e5 | 2.09e5 | 13370 | inactive
COX7AL2 | 1 | 1.35e5 | 1.09e5 | 1.48e5 | 1.58e5 | 8765 | inactive
Agpat3 | 1 | 1.04e5 | 1.16e5 | 66960 | 81210 | 8555 | inactive
Apoltp | 1 | 2.16e5 | 2.43e5 | 2.44e5 | 2.61e5 | 20275 | inactive
CG13562 | 1 | 1.87e5 | 1.65e5 | 1.70e5 | 1.48e5 | 11105 | inactive
CG4408 | 1 | 2.12e5 | 2.15e5 | 2.58e5 | 2.59e5 | 13690 | inactive
CG7945 + yellow-k | 1 | 1.85e5 | 1.91e5 | 2.10e5 | 1.66e5 | 11070 | inactive
Nepl12 | 1 | 1.58e5 | 1.60e5 | 1.60e5 | 1.27e5 | 9165 | inactive
CG33523 | 1 | 2.66e5 | 2.39e5 | 2.48e5 | 2.73e5 | 13555 | inactive
CG33271 | 1 | 2.11e5 | 1.31e5 | 1.75e5 | 1.79e5 | 9705 | inactive
Mkk4 | 1 | 1.17e5 | 1.14e5 | 1.02e5 | 1.05e5 | 7465 | inactive
Sf3b6 | 1 | 1.03e5 | 1.04e5 | 68425 | 64210 | 5510 | inactive
CG32801 | 1 | 1.03e5 | 1.04e5 | 1.71e5 | 1.69e5 | 7360 | inactive
AdoR | 1 | 54375 | 66045 | 75620 | 90805 | 5470 | inactive
Rbbp5 | 1 | 1.12e5 | 1.03e5 | 69755 | 62045 | 4385 | inactive
CG33458 | 1 | – | – | – | – | – | active
witty | 1 | 1.20e5 | 1.61e5 | 88330 | 1.01e5 | 19585 | inactive

Reagents listed so far called active:
Gene | dsRNA no. | induced reporter light, run 1, well a | induced reporter light, run 1, well b | control promoter light, run 1, well a | control promoter light, run 1, well b | uninduced reporter light, run 1, well a | Outcome
Myb | 1 | 68830 | 63710 | 77945 | 88245 | 10240 | active
CG33458 | 1 | – | – | – | – | – | active
